Data source: PubChem BioAssay AID686943 (Drosophila RNAi Screening Center, 2013)

Test: 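Search across the genome for regulators of signalling from receptor tyrosine kinase to ERK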 (primary screen)
Cell system: Drosophila S2R+ haemocyte-like cells expressing YFP-tagged ERK (Rolled)
Knock-down reagent: long dsRNA against Drosophila genes
Treatment: insulin stimulation versus unstimulated cells; dose and duration not given
Measurement: 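Per-plate z-scores of phospho-ERK immunostaining normalised to YFP-tagged ERK, measured with and without insulin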
Reading the numbers: replicate 1, z-score of dpERK with insulin and replicate 2, z-score of dpERK with insulin: higher = more active ERK per ERK-YFP after insulin; replicate 1, z-score of dpERK under basal conditions: higher = more basal active ERK per ERK-YFP; replicate 1, z-score of ERK-YFP with insulin: higher = more YFP-tagged ERK signal
The deposit covers about 23,000 reagents; shown is a random part of those with a known target gene and a result. 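Extra replicates exist only for a retested subset of genes; insulin dose and duration not given; both raised and lowered dpERK matter.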 The numbers tell different reagents against one gene apart. Not stated in the record: the amount of reagent, the time to read-out.

predicted target | dsRNA no. | replicate 1, z-score of dpERK with insulin | replicate 2, z-score of dpERK with insulin | replicate 1, z-score of dpERK under basal conditions | replicate 1, z-score of ERK-YFP with insulin
CG17490 | 1 | -1.08 | 0.68 | -1.07 | 0.58
CG17490 | 2 | -1.02 | -0.05 | 0.96 | 1.13
Stat92E | 1 | 2.21 | 1.95 | 1.45 | 0.17
CG15382 | 1 | 0.3 | 0.19 | 0.24 | -0.32
Shaw | 1 | 0.63 | 0.46 | 0.03 | 0.46
Shaw | 2 | 0.38 | 0.67 | 0.7 | 0.53
Shaw | 3 | -0.46 | 0.25 | 0.14 | -0.08
Cdc2rk | 1 | 0.39 | 0.29 | 0.48 | 0.67
Obp73a | 1 | 0.95 | 0.78 | 0.27 | 0.37
CR30409 | 1 | -0.59 | -0.12 | -1.29 | 0.64
CG13692 | 1 | 0.15 | -0.13 | 0.2 | 0
Npl4 | 1 | -1.04 | 0.68 | -0.59 | 0.3
Npl4 | 2 | -0.18 | -0.3 | -0.72 | 0.21
Osi9 | 1 | 0.99 | -0.03 | -0.55 | 1.36
Dh31-R | 1 | -0.27 | 0.23 | -0.09 | 0.53
Dh31-R | 2 | -0.59 | 0.51 | -0.95 | 0.15
NKAIN | 1 | -0.35 | -0.23 | 1.6 | 0.24
NKAIN | 2 | 0.43 | 0.5 | -0.39 | -0.09
Rab7 | 1 | -0.32 | -1.11 | -0.94 | 0.64
CG34445 | 1 | 0.05 | -3.16 | -0.13 | 0.39
CG42750 | 1 | -5.65 | 0 | -1.2 | -4.5
CG42750 | 2 | 0.39 | 0.12 | 0.3 | 1.12
CG42750 | 3 | 0.51 | -0.95 | -0.24 | -0.87
CG42750 | 4 | 0.85 | -0.28 | 0.86 | -0.33
mdy | 1 | 1 | -0.42 | -0.23 | 0.36
mdy | 2 | 1.24 | 0.43 | -0.78 | -0.23
Eip63F-1 | 1 | -0.03 | 0.02 | -0.64 | -0.08
Eip63F-1 | 2 | 0.2 | 0.46 | -0.22 | 0.76
sov | 1 | -0.61 | -0.36 | 0.03 | 1.5
gogo | 1 | -1.87 | -0.79 | 0.42 | 0.21
gogo | 2 | -0.62 | 0.58 | 1.89 | 0.18
CG8870 | 1 | 0.74 | 0.5 | 1.14 | 0.28
CG17005 | 1 | 0.08 | -0.2 | 1.17 | -0.36
lncRNA:noe | 1 | 1.04 | 0.01 | -1.35 | 0.15
Lrr47 | 1 | -0.81 | 1.14 | -0.76 | 0.91
unc80 | 1 | 0.69 | -0.07 | 0.56 | -0.01
CG10864 | 1 | 1.01 | -0.21 | -0.16 | -0.59
Rh7 | 1 | -0.54 | 0.37 | -0.56 | -0.89
CG15743 | 1 | 0 | 0.1 | -0.46 | 1.04
